Measurements reported in PubChem BioAssay AID1259254 (NCATS, 2017)
Screen: 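Genome-wide screen for genes that prevent DNA re-replication in cancer cells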 (primary screen). Cells: human HCT116 colorectal cancer cells. Reagents: single siRNA against human genes. Duration: 3 days. Read-out: 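Nuclei stained with Hoechst and imaged; cell-cycle phase assigned by DNA content; G2 share scaled per plate, non-targeting siRNA 0%, GMNN siRNA 100%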. Direction: G2 robust z-score and G2 cells, % of GMNN control: higher = more G2 cells, more excess DNA replication. Active means: 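Active siRNAs have a G2 robust z of 5 or more median absolute deviations over the median, which in these data means about 38% or higher of GMNN control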.
The whole screen tested about 59,000 reagents; shown is an unselected part. About 1,550 of all reagents (2.6%) were called active. 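G2 share is only a proxy for re-replication; each gene was hit by three separate siRNAs, and active genes were retested.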 Reagents against one gene are numbered here. Not all columns of the deposit are shown. Not stated in the record: the amount of reagent.

| gene symbol | reagent no. | G2 robust z-score | G2 cells, % of GMNN control | outcome |
| --- | --- | --- | --- | --- |
| ANKS4B | 1 | 3.01 | 24.1 | inactive |
| ANKS4B | 2 | -0.229 | 1.36 | inactive |
| ANKS4B | 3 | -0.17 | 1.77 | inactive |
| EPB41L3 | 1 | -0.391 | 0.216 | inactive |
| EPB41L3 | 2 | -0.351 | 0.496 | inactive |
| EPB41L3 | 3 | 0.177 | 4.22 | inactive |
| ZNF35 | 1 | -1.01 | -4.13 | inactive |
| ZNF35 | 2 | -0.166 | 1.8 | inactive |
| ZNF35 | 3 | 0.369 | 5.57 | inactive |
| EPHA8 | 1 | -0.616 | -1.37 | inactive |
| EPHA8 | 2 | 1.49 | 13.4 | inactive |
| EPHA8 | 3 | -0.81 | -2.73 | inactive |
| CRELD1 | 1 | 0.322 | 5.24 | inactive |
| CRELD1 | 2 | -0.114 | 2.17 | inactive |
| CRELD1 | 3 | 0.199 | 4.37 | inactive |
| AFDN-DT | 1 | 0.386 | 5.68 | inactive |
| AFDN-DT | 2 | -0.413 | 0.0649 | inactive |
| AFDN-DT | 3 | -0.0813 | 2.4 | inactive |
| ECD | 1 | 4.38 | 33.8 | inactive |
| ECD | 2 | 0.537 | 6.75 | inactive |
| ECD | 3 | 1.3 | 12.1 | inactive |
| TYROBP | 1 | -0.356 | 0.462 | inactive |
| TYROBP | 2 | -0.184 | 1.68 | inactive |
| TYROBP | 3 | -0.253 | 1.18 | inactive |
| CBFA2T3 | 1 | -0.573 | -1.06 | inactive |
| CBFA2T3 | 2 | -0.748 | -2.29 | inactive |
| CBFA2T3 | 3 | 0.396 | 5.76 | inactive |
| PNLIPRP2 | 1 | -0.254 | 1.18 | inactive |
| PNLIPRP2 | 2 | -0.48 | -0.411 | inactive |
| PNLIPRP2 | 3 | -0.356 | 0.465 | inactive |
| CPLANE2 | 1 | 1.31 | 12.1 | inactive |
| CPLANE2 | 2 | 2.18 | 18.3 | inactive |
| CPLANE2 | 3 | -0.414 | 0.0517 | inactive |
| KLHL15 | 1 | 0.777 | 8.43 | inactive |
| KLHL15 | 2 | 0.232 | 4.6 | inactive |
| KLHL15 | 3 | 1.42 | 12.9 | inactive |
| AP1B1 | 1 | 0.165 | 4.13 | inactive |
| AP1B1 | 2 | 0.0212 | 3.12 | inactive |
| AP1B1 | 3 | 0.32 | 5.22 | inactive |
| ACOT13 | 1 | 1.03 | 10.2 | inactive |
| ACOT13 | 2 | -0.802 | -2.67 | inactive |
| ACOT13 | 3 | -0.415 | 0.051 | inactive |
| ATXN1L | 1 | -1.41 | -6.95 | inactive |
| ATXN1L | 2 | -0.149 | 1.92 | inactive |
| ATXN1L | 3 | 1.34 | 12.4 | inactive |
| SLC1A7 | 1 | 3.48 | 27.5 | inactive |
| SLC1A7 | 2 | 0.512 | 6.57 | inactive |
| SLC1A7 | 3 | 1.56 | 14 | inactive |
| SNAP91 | 1 | -0.477 | -0.385 | inactive |
| SNAP91 | 2 | 1.98 | 16.9 | inactive |
| SNAP91 | 3 | -0.906 | -3.41 | inactive |
| NPFFR1 | 1 | -0.838 | -2.93 | inactive |
| NPFFR1 | 2 | -1.06 | -4.48 | inactive |
| NPFFR1 | 3 | -0.117 | 2.14 | inactive |
| HFE | 1 | 5.03 | 38.3 | active |
| HFE | 2 | -0.261 | 1.13 | inactive |
| HFE | 3 | 3.92 | 30.5 | inactive |
| MARK3 | 1 | -1.49 | -7.5 | inactive |
| MARK3 | 2 | -0.454 | -0.225 | inactive |
| MARK3 | 3 | -0.297 | 0.879 | inactive |
| SLC36A4 | 1 | 2.07 | 17.5 | inactive |
| SLC36A4 | 2 | 1.45 | 13.2 | inactive |
| SLC36A4 | 3 | -0.322 | 0.7 | inactive |
| MESP1 | 1 | -0.561 | -0.981 | inactive |
| MESP1 | 2 | -0.635 | -1.5 | inactive |
| MESP1 | 3 | -0.0488 | 2.62 | inactive |
| ZNF731P | 1 | -0.217 | 1.44 | inactive |
| ZNF731P | 2 | -0.0933 | 2.31 | inactive |
| ZNF731P | 3 | -0.337 | 0.598 | inactive |

Part of the list above, limited to “G2 robust z-score”.
ACOT13 #2 = -0.802
ACOT13 #3 = -0.415
ATXN1L #1 = -1.41
ATXN1L #2 = -0.149
ATXN1L #3 = 1.34
